Measurements taken from PubChem BioAssay AID624291 (National Center for Advancing Translational Sciences (NCATS), 2012).
About 220 (0.063%) of roughly 350,000 compounds were called active. This list was built around the results that the source calls inconclusive (neither active nor inactive); the mix of calls is not that of the screen. Calls come from the whole dose curve; as a rule, active = well fitted activation curve with a large enough effect; inconclusive = small, poorly fitted or top-dose-only effect; inactive = no such curve, though single readings can be large or run the other way. Potencies beside an inconclusive call are fits to weak or partial responses and may not hold up.

Assay: qHTS for Activators of Integrin-Mediated Alleviation for Muscular Dystrophy; note: nearly all actives have a fitted effect of over 60% in size;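 for activation: 100% = response of the positive control SU9516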
Details: alpha7betagal myoblasts, beta-gal FDG fluorescence, 48 h; activation: at 38.3 µM (top of the series)
Summary of the method: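 alpha7betagal+/- myoblasts (passage 13, 250/well) treated 48 h at 37C with compounds at 1:260 dilution of DMSO stock. Lysed, then beta-galactosidase activity read as FDG fluorescence (ex 480/em 540) after 30 min, with pre-read for autofluorescence.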
Potency is the fitted concentration of half-maximal effect.

Potency, active:
C/C(=C\C(=O)c1ccccc1)Nc1ccc(Br)c(Cl)c1 11.2 µM

Potency, inconclusive:
COc1ccccc1CNC(=O)COC(=O)Cc1ccc(Cl)cc1 1 µM [activator, full curve, poor fit]
CCc1c(C(=O)OCc2ccccc2)[nH]c(C)c1C 31.6 µM [activator, partial curve, poor fit]
CCOC(=O)C1CCCN(C(=S)Nc2ccc(OC)cc2)C1 (stereo not drawn) 0.501 µM [activator, full curve, poor fit]
CCn1nc(C(=O)Nc2nc3ccccc3[nH]2)c2ccccc2c1=O 31.6 µM [activator, single point]
O=C(NC(=S)Nc1ccccc1Cl)c1cnn2c(C(F)(F)F)cc(C(F)(F)F)nc12 3.16 µM [activator, single point]
COC(=O)CCC(=O)N(CCN(C(=O)CCC(=O)OC)c1ccccc1)c1ccccc1 3.55 µM [activator, single point]
CCOC(=O)C1=C(COC(=O)CNS(=O)(=O)c2ccc(C)cc2)NC(=O)NC1C (stereo not drawn) 22.4 µM [activator, single point]
Cc1ccc(S(=O)(=O)NNC(=O)CCC(=O)Nc2ccccc2Cl)cc1 5.01 µM [activator, single point]
CCOC(=O)c1c(S(=O)(=O)NCC(=O)Nc2ccc(F)cc2F)c(C)n(C)c1C 28.2 µM [activator, single point]
Oc1c(CN2CCCCC2)cc(Br)c2cccnc12 28.2 µM [activator, single point]
Cc1ccccc1NC(=O)/C(=C\c1cccs1)NC(=O)c1ccccc1 28.2 µM [activator, single point]
O=C(NCCNC(=O)c1ccccc1Br)c1ccccc1Br 3.55 µM [activator, single point]
COc1ccc(OC)c(Nc2nc3nonc3nc2N2CCCC(C)C2)c1 (stereo not drawn) 5.01 µM [activator, single point]
COc1ccc(NS(=O)(=O)c2cccc(NC(=O)CCS(=O)(=O)c3ccccc3)c2)cc1 3.16 µM [activator, partial curve, poor fit]
CCCCn1c(N)c(N(CCOC)C(=O)c2ccc(Cl)c(S(=O)(=O)N3CCCC3)c2)c(=O)[nH]c1=O 2.51 µM [activator, partial curve, poor fit]
CC(C)N1CCC2(CC1)Oc1ccc(Br)cc1C1CC(c3cccnc3)=NN12 (stereo not drawn) 12.6 µM [activator, partial curve, poor fit]
CNC(=S)N1CCc2sccc2C1C (stereo not drawn) 2.51 µM [activator, partial curve, poor fit]
Cc1sc2nc3c(C(=O)N4CCCC4)cc(C(=O)c4ccccc4O)cn3c(=O)c2c1C 3.55 µM [activator, single point]
O=C(N/N=C/c1ccc(Cl)c([N+](=O)[O-])c1)c1cc(-c2ccccc2)nc2ccccc12 28.2 µM [activator, single point]
O=C(COc1ccc(NC(=O)c2ccccc2)cc1)c1ccccc1 22.4 µM [activator, single point]
CC1CCN(C(=O)CN(Cc2ccc(Cl)cc2)S(C)(=O)=O)CC1 3.16 µM [activator, single point]
CCN(CC)CCSc1nc2ccc(OC)cc2[nH]1 28.2 µM [activator, single point]
Cc1cccc(C(=O)NCC(=O)OCC(=O)c2ccc(C)s2)c1 3.98 µM [activator, single point]
O=C1c2ccccc2C(=O)N1c1nccs1 3.16 µM [activator, single point]
CC(C)c1ccc(C2/C(=C(/O)c3ccc(F)cc3)C(=O)C(=O)N2CCCN2CCOCC2)cc1 (stereo not drawn) 5.01 µM [activator, single point]
COc1ccc(-c2cc(=O)oc3c(C)c(OC(=O)c4cccs4)ccc23)cc1 1.26 µM [activator, partial curve, poor fit]
CC12CC3CC(C)(C1)CC(C(=O)NNC(=O)c1ccncc1)(C3)C2 5.01 µM [activator, single point]
COC(=O)CN(C)C(=O)c1ccc2nc(Cc3cccc(Cl)c3)oc2c1 8.91 µM [activator, single point]
CCCCCCC(=O)Nc1ccc(Br)cn1 3.16 µM [activator, single point]
O=C(CSc1nnc(-c2ccc(Br)cc2)o1)Nc1cccc(C(=O)O)c1 12.6 µM [activator, single point]
C=CCN(CC=C)S(=O)(=O)c1ccc(NC(=S)NC(=O)/C=C/c2ccccc2)cc1 11.2 µM [activator, partial curve, poor fit]
COC(=O)C(NC(=O)CCc1c(C)nc2c(c(C)nn2-c2ccccc2)c1C)C(C)C (stereo not drawn) 5.01 µM [activator, single point]
COc1ccc(C(C)(C)C)cc1NC(=O)c1cncc(Br)c1 3.16 µM [activator, partial curve, poor fit]
CC1(C)Cc2nc3sc(C(=O)NCCCO)c(N)c3cc2CS1 5.01 µM [activator, single point]
CSc1cccc(NC(=S)N(C(C)C)C(C)c2ccccn2)c1 (stereo not drawn) 5.01 µM [activator, single point]
O=C(COC(=O)c1ccc[nH]c1=O)NC1CCCCCC1 5.01 µM [activator, single point]
O=C1OC(Cc2ccncc2)C(O)=C1C1=NCCCN1 (stereo not drawn) 3.16 µM [activator, single point]
COc1ccc(CN2CCNC(=O)C2CC(=O)N(C)Cc2nccs2)c(OC)c1 (stereo not drawn) 5.01 µM [activator, single point]
CC(=O)N1CCc2ccccc2C1CC(=O)O (stereo not drawn) 3.55 µM [activator, single point]
COc1ccc(C2=NN(CCC(=O)NC3CCC(C)CC3)C(=O)CC2)cc1 (stereo not drawn) 5.01 µM [activator, single point]
NC(=O)CN(C/C=C/c1ccccc1)C/C=C/c1ccccc1 28.2 µM [activator, single point]
Cc1ccc(NC(=O)Nc2cc(C(F)(F)F)c[nH]c2=O)cc1 22.4 µM [activator, single point]
CC1=NN2C(=N)/C(=C\c3ccc(SCc4ccccc4)o3)C(=O)N=C2S1 1.26 µM [activator, partial curve, poor fit]
Oc1ccc(/C=N/NC(=S)Nc2cccnc2)cc1 3.16 µM [activator, single point]

Random excerpt: 5 records from the list
Potency, inconclusive:
COc1ccc(C2=NN(CCC(=O)NC3CCC(C)CC3)C(=O)CC2)cc1 (stereo not drawn) 5.01 µM [activator, single point]
CC(C)N1CCC2(CC1)Oc1ccc(Br)cc1C1CC(c3cccnc3)=NN12 (stereo not drawn) 12.6 µM [activator, partial curve, poor fit]
CCCCCCC(=O)Nc1ccc(Br)cn1 3.16 µM [activator, single point]
O=C(CSc1nnc(-c2ccc(Br)cc2)o1)Nc1cccc(C(=O)O)c1 12.6 µM [activator, single point]
Cc1ccc(NC(=O)Nc2cc(C(F)(F)F)c[nH]c2=O)cc1 22.4 µM [activator, single point]

Next part.

activation, inconclusive:
O=C(Nc1c[nH]c(=O)[nH]c1=O)c1cc([N+](=O)[O-])cc([N+](=O)[O-])c1 44.1% [activator]

activation, inactive:
O=C(CCl)N1c2ccccc2OCC1c1ccccc1 (stereo not drawn) -57.7%
COC(=O)c1cc(=O)c2ccc(OC)cc2o1 7.64%
COc1ncccc1-c1nnn(-c2ccc(F)cc2)n1 14.2%
CC(C)C(NC(=S)Nc1ccccc1)C(=O)O (stereo not drawn) 11.6%
O=C(Cc1ccccc1)NCCC1=CCCCC1 9.21%
CC1CCCN(CCCNC(=O)c2ccc3c(c2)N(Cc2ccccc2F)C(=O)c2ccccc2S3(=O)=O)C1 (stereo not drawn) -52.2%
COc1cc(/C=N/n2c(C3CCCCC3)n[nH]c2=S)cc(Br)c1O 7.24%
OCCN(Cc1ccccc1)CC(O)COc1ccc2c(c1)OCO2 (stereo not drawn) -12.5%
CC1(C)CC2CC(C)(CN2c2ncnc3ccccc23)C1 (stereo not drawn) -46.8%
O=c1nc(NC2CCCC2)ccn1Cc1cccc(Br)c1 -5.96%
O=c1ccc2[n+]([O-])c3ccc(O)cc3oc-2c1 0%
Cc1cc(C)cc(C(=O)NCC(=O)NCCc2c[nH]c3ccccc23)c1 5.36%
CN1C(c2ccccc2)=NO[C@]1(C)c1ccccc1 -3.18%
O=C(CNC(=O)c1ccccc1F)NCCN1C(=O)S/C(=C\c2ccccc2Cl)C1=O -22.4%
COc1ccc(NC(C)c2cc(Cl)ccc2O)cc1 (stereo not drawn) 6.16%
COc1ccc(C2C(C#N)=C(N)N(N(C)C)C3=C2C(=O)CC(C)(C)C3)cc1 (stereo not drawn) 1.42%
Cc1ccc(C(=O)NC(C)CCc2ccccc2)cc1S(=O)(=O)N1CCOCC1 (stereo not drawn) 8.01%
Cc1ccccc1Nc1nc(N)nc(CSCc2c(C)noc2C)n1 8.65%
O=C(/C=C/c1ccccc1Cl)Nc1ccc2c(c1)C(=O)NC2=O 21.9%
Cc1ccc(N2CCN(CC3CC=CCC3)CC2)cc1 (stereo not drawn) 26.8%
O=C(CCN1CCOCC1)Nc1cc(C(=O)Nc2ccc(Cl)cc2)ccc1N1CC2CC(C1)c1cccc(=O)n1C2 (stereo not drawn) -30.6%
CCNC(=O)c1ccccc1SCc1ccccc1 -31.7%
O=c1c2ccccc2nc(-c2ccc(Cl)c(Cl)c2)n1O 14.5%
Cc1cc(Cl)c(S(=O)(=O)N2CCCC2)cc1OCC(N)=O -4.11%
CCOC(=O)CCCSc1nc2sc3c(c2c(=O)[nH]1)CCC3 8.18%
COc1ccc(CNC(=O)Nc2cccs2)cc1OC 0%
CC(C)(C)c1cc(=O)n(-c2ccccc2)[nH]1 -44%
